Substitutions are numbered along the chain they refer to. Results are given in words; binding and its absence hold for the method and conditions named. For some of these results: Binding can be weak; no strength is given. For some of these results: Tags and fused reporters may be left off the sequences shown. For some of these results: Binding seen in cells or lysates may run through a third protein.
Columns and labels:
Cdc53-Ha (S. cerevisiae) [1] = biological target: T1, Cdc53-Ha (S. cerevisiae) (UniProt Q12018); experiment: SEC; cell lysate of YL1C passed over Superdex 200 in cold PBS (4°C), 0.5 ml/min, 0.5 ml fractions analysed by western blot
T1 sequence: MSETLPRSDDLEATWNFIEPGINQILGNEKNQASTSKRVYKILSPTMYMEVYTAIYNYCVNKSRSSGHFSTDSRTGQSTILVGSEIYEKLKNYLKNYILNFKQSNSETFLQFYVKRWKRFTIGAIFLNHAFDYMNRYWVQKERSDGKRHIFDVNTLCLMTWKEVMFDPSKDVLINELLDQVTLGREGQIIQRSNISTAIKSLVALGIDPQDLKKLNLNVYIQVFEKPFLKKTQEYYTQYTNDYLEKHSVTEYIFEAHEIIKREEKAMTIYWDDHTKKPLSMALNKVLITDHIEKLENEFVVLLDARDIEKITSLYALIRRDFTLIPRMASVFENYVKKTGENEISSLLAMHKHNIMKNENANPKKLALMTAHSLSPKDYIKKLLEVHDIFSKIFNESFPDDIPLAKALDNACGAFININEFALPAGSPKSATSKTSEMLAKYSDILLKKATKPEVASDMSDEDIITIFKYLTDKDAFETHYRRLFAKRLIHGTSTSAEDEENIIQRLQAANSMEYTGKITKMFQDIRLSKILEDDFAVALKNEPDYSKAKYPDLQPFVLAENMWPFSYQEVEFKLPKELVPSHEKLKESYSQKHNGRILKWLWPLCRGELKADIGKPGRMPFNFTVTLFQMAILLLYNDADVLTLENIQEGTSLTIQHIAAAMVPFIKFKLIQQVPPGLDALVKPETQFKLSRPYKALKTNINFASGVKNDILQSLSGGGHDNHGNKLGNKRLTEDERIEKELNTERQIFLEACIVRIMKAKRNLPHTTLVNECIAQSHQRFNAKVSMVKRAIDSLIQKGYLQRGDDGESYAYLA

Sequences of proteins named here, by UniProt entry; tags and fusion partners are left off. A change or cut given only in a name is not applied to a line headed by its entry.
UniProt P52286: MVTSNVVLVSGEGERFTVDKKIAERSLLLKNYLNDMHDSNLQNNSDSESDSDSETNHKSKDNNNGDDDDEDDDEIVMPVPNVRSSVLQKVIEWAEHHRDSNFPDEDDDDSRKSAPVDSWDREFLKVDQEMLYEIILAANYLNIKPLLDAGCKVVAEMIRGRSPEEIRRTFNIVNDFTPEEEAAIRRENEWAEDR
UniProt P38285: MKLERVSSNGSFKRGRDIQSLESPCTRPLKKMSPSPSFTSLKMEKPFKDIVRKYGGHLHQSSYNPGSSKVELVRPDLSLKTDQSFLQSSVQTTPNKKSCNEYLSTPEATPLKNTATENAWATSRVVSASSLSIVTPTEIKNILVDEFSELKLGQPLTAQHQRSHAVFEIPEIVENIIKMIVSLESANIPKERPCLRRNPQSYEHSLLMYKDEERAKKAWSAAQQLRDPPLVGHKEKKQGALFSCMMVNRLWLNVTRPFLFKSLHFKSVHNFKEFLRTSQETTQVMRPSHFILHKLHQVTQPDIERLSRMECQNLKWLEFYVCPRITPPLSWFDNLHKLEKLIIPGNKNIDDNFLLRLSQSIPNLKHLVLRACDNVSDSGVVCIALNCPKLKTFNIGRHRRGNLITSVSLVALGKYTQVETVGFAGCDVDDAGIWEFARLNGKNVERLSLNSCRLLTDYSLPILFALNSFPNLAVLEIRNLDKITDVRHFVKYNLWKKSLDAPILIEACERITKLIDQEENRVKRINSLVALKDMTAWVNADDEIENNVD

Skp1-Myc (S. cerevisiae) [2] = biological target: Skp1-Myc (S. cerevisiae) (UniProt P52286); experiment: as above
Cdc53-Ha (S. cerevisiae) [3] = biological target: T1, Cdc53-Ha (S. cerevisiae); experiment: co-IP; whole cell extracts of YL1C strains grown in YPD to OD600 1.0; dynabeads protein G with antibody; IP lysis buffer 50 mM HEPES-KOH pH 7.5, 140 mM NaCl, 1 mM EDTA, 1% Triton X-100; for Cdc15/Tem1 in YL1C, YL1C Δamn1 and with overexpressed Amn1^368D or Amn1^368V
Skp1-Myc (S. cerevisiae) [4] = biological target: Skp1-Myc (S. cerevisiae) (UniProt P52286); experiment: as above
Tem1 (S. cerevisiae) = biological target: T2, Tem1 (S. cerevisiae) (UniProt P38987); experiment: as above
T2 sequence: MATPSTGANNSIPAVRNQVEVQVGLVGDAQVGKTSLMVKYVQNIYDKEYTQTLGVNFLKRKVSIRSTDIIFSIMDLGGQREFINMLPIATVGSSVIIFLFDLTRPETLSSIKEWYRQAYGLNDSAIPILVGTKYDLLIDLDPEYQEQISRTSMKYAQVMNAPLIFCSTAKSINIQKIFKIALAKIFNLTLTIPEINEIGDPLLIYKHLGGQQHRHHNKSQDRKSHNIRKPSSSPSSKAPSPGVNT

[5] = biological target: T3, Myc-Ace2 expressed from the GAL promoter in YL1C (S. cerevisiae) (UniProt P21192); experiment: co-IP; Myc-Ace2 (GAL promoter, galactose-induced, MG132 20 uM for one hour) precipitated from 50 mg whole cell extract with anti-Myc on dynabeads protein G, 1 hour at room temperature; IP lysis buffer 50 mM HEPES-KOH pH 7.5, 140 mM NaCl, 1 mM EDTA, 1% Triton X-100; blots with anti-Myc and anti-Flag
T3 sequence: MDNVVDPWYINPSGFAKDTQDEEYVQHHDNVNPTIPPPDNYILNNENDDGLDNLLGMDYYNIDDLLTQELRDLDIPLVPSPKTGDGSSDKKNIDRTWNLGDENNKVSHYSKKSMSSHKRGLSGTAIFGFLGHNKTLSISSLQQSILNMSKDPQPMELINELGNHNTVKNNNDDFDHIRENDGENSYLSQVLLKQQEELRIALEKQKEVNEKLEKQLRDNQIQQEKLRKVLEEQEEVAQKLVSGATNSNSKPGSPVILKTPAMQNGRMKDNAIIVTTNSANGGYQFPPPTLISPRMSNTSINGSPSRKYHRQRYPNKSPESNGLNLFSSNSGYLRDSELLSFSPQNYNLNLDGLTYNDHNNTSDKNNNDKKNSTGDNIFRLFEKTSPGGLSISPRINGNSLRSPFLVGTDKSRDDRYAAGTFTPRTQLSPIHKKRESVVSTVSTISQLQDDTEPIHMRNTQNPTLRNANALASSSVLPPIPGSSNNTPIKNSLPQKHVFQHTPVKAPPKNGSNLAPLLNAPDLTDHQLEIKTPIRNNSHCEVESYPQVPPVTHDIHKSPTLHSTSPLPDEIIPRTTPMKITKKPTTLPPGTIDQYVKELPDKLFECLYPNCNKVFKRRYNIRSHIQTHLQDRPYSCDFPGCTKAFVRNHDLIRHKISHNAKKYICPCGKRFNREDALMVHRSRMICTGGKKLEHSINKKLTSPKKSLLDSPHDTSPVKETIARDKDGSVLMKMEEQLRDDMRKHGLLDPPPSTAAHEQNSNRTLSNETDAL

[6] = biological target: T4, Ace2* (11-residue domain … of Ace2 replaced by … of Swi5), Myc-tagged (S. cerevisiae) (UniProt P21192); experiment: as above
T4 sequence: T3 sequence with L70I, R71N, D74N, I75L, V78G

- binding (Cdc53-Ha (S. cerevisiae) [1]): binds
- binding (Skp1-Myc (S. cerevisiae) [2]): binds
- binding (Cdc53-Ha (S. cerevisiae) [3]): binds
- binding (Skp1-Myc (S. cerevisiae) [4]): binds
- binding (Tem1 (S. cerevisiae)): binds
- binding [5]: binds
- binding [6]: no binding
Substance: Amn1^368D from S. cerevisiae strain YL1C, Flag-tagged (from UniProt P38285)

From PMC6181423
